No constants are given. Whether binding was seen depends on the method and setting. Some results given as binding are weak or reduced against the parent protein; the word gives no strength. One block for each binder: values may come before it.
Target: human recombinant secPHEX (pure soluble form of PHEX) (human) (UniProt P78562)
Experiment: continuous fluorimetric hydrolysis kinetics; affinity inferred from Km

The chains behind the UniProt entries cited, without tags or fusion partners. Residues count along the entry.
UniProt P78562, residues 46-749: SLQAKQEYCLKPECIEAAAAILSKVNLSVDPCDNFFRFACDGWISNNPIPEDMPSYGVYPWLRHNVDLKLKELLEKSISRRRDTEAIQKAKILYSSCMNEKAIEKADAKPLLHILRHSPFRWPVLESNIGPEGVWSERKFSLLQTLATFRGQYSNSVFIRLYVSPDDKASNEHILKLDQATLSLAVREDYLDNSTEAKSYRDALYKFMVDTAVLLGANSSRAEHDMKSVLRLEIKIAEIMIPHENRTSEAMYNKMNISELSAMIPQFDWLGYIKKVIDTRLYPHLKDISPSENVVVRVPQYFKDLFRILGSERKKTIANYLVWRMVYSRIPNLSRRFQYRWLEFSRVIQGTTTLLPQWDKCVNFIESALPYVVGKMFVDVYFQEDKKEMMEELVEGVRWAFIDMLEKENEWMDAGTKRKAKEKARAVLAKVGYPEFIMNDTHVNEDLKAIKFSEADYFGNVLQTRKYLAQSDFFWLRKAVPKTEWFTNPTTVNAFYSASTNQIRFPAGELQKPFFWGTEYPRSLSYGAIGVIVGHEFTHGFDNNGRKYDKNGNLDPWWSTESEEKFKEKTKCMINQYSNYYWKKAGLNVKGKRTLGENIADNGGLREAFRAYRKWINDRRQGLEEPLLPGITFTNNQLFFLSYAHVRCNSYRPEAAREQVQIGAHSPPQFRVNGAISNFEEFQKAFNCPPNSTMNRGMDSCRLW

- binding: binds
Binder: DHLSDTSTQ (N-terminal Abz; EDDnp attached to the C-terminal Gln) [Abz-D125-HLSDTSTQ-EDDnp]

- binding: binds
Binder: LELDSRQ (N-terminal Abz; EDDnp attached to the C-terminal Gln) [Abz-L134-ELDSRQ-EDDnp]

- binding: binds
Binder: RRDDSSEQ (N-terminal Abz; EDDnp attached to the C-terminal Gln) [Abz-R506-RDDSSEQ-EDDnp]

The next lines start with the binder.

Binder: AWLDSGVQ (N-terminal Abz; EDDnp attached to the C-terminal Gln) [Abz-A110-WLDSGVQ-EDDnp]
- binding: binds

Binder: RRHTRSAEDDSERQ (N-terminal Abz; EDDnp attached to the C-terminal Gln) [Abz-R175-…-EDDnp]
- binding: binds

Binder: GSSDAAEQ (N-terminal Abz; EDDnp attached to the C-terminal Gln) [Abz-G386-SSDAAEQ-EDDnp]
- binding: binds
